# Data from the supplement of paper PMC10032668.
# Protein sequences, listed by entry. Tags and fused reporters are not part of them.
# ATP1B3, P54709, UniProt P54709, whole entry: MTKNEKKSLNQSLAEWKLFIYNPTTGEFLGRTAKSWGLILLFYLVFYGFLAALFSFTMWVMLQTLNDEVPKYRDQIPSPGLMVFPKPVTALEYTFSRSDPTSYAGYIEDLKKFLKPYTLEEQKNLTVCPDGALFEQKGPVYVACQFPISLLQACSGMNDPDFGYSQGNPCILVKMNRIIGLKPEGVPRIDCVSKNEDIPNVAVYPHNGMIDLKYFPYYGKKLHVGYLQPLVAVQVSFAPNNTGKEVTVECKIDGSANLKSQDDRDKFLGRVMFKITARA
# This is one part of the list. Only hits are listed; about a third recur on repeated control peptides.
# Columns and labels:
# Assay in all cases: PRISMA enrichment of interactor (LFQ) in peptide spot vs all other peptide spots (log2 fold change); higher = stronger / more specific binding of the interactor to the peptide
# [1] = target: SARS2, Q9NP81
# Procedure: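 PRISMA: 221 full-length sORF-encoded peptides (3-15 aa), plus SOS1/GLUT1 control peptides, were spot-synthesized on cellulose membranes in triplicate. Membranes were incubated with HEK293T lysate, and bound proteins were identified by LC-MS/MS with LFQ. Enrichment is the log2 fold change versus all other peptide spots; only significant interactors are listed (cutoff c=6, x0=2.8).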
# [2] = target: ATP1B3, P54709
# Procedure: (§1)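 PRISMA: 15-aa overlapping tiles (offset 8 aa) of 60 microproteins, plus SOS1/GLUT1 control peptides, were spot-synthesized on cellulose membranes in triplicate. Membranes were incubated with benzonase-treated HEK293T lysate, and bound proteins were identified by LC-MS/MS with LFQ. Enrichment is the log2 fold change of each protein in one spot versus all other spots. Only interactors passing the significance cutoff are listed.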
# [3] = target: GABRA4, P48169
# Procedure: as §1
# [4] = target: SRBD1, Q8N5C6
# Procedure: as §1
# [5] = target: VKORC1, Q9BQB6
# Procedure: as §1
binder,measurement,setting,value
MAASRTVMAVGRRR [NF1],PRISMA enrichment of interactor (log2),[1],4.75
GPAWWVVSEVLAEQR [ABR],PRISMA enrichment of interactor (log2),[2],6.54
DSVRDRLPQDHSAPA [DANCR],PRISMA enrichment of interactor (log2),[3],4.65
GLQGVRSMSPLTKVQ [JPX],PRISMA enrichment of interactor (log2),[4],4.72
RDYKVLVVMVPLVGL,PRISMA enrichment of interactor (log2),[4],5.71
DIPEQDSLGLSNLQK,PRISMA enrichment of interactor (log2),[4],4.18
SRTAGPAATWTGIQR [TBX5-AS1],PRISMA enrichment of interactor (log2),[5],6.26
